Experiment [1] concerns the target T1, HA-NOXA^wt (human).
T1 sequence: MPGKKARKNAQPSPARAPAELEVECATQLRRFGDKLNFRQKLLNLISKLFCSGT
The experiment can be described thus: affinity purification with mass spectrometry; IP with NOXA antibody (clone N-15) and Protein G beads; HEK293T transfected with HA-NOXA 36 h, 1 µM DOX 16 h, cells cross-linked with 0.025% glutaraldehyde before lysis; endogenous NOXA also used as bait; binders defined as proteins not present in the IgG control.

Chains of the proteins cited; added tags and fusions are not shown.
UniProt Q9UNE7: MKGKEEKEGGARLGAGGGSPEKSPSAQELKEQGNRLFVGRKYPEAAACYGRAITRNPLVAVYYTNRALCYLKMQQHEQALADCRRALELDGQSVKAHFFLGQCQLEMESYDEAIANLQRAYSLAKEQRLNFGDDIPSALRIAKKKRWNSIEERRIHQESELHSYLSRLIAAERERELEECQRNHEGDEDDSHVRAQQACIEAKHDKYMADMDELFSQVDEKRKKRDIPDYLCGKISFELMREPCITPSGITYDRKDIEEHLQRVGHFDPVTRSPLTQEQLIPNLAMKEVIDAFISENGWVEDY

Experiment [2] addresses T2, NOXA (endogenous) (human (endogenous in HeLa)) (UniProt Q13794).
T2 sequence: T1 sequence
The experiment is described as above.

No constants are given. Whether binding was seen depends on the method and setting. Binding seen in cells or lysates may run through a third protein. A yes stands for co-enrichment or nearness to the bait. Other partners may have been found. For some assays here: Tags and fused reporters may be left off the sequences shown.

In the case of “CHIP (carboxyl-terminus of Hsc70-interacting protein) (from UniProt Q9UNE7 1-303) (enzyme)”, the binding result in experiment [1] and in experiment [2] was “binds” in each case.

For the origin of these results see article PMC7484759.
